Test system: GAM and streptavidin
Test: Protein labeling, overall statements (GAM and SA not distinguished)
Details: comparison among the DY-350 dyes

Nc1ccc2c3c(c(=O)oc2c1S(=O)(=O)O)CCC3C(CC(=O)O)S(=O)(=O)[O-].[Na+] (stereo not shown) [V07-09089, 3-(7-amino-4-oxo-6-sulfo-1,2,3,4-tetrahydro-cyclopenta[c]chromen-1-yl)-3-sulfopropionic acid bis sodium salt] was tested, and the “labeling among the DY-350 dyes” value was “lower labeling”.
